Assay results published in publication PMC5814800.

What was measured:
[1] = biological target: T1, T18 fused to ϕC31 integrase aa 200–407 (pEY118) (Streptomyces phage ϕC31) (UniProt Q9T221); experiment: two-hybrid; bacterial two-hybrid (adenylate cyclase T18 and T25 fusions) in E. coli BTH101; colony colour on LB agar with IPTG and X-Gal, 30°C, 24–48 h
T1 sequence: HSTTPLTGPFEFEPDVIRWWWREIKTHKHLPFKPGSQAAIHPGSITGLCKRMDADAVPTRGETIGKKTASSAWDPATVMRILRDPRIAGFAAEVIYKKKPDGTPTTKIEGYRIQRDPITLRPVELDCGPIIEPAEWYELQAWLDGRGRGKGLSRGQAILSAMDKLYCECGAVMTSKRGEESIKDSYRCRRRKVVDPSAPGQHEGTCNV

[2] = biological target: T2, T18 fused to ϕC31 integrase aa 200–605 (pEY116) (Streptomyces phage ϕC31) (UniProt Q9T221); experiment: as above
T2 sequence: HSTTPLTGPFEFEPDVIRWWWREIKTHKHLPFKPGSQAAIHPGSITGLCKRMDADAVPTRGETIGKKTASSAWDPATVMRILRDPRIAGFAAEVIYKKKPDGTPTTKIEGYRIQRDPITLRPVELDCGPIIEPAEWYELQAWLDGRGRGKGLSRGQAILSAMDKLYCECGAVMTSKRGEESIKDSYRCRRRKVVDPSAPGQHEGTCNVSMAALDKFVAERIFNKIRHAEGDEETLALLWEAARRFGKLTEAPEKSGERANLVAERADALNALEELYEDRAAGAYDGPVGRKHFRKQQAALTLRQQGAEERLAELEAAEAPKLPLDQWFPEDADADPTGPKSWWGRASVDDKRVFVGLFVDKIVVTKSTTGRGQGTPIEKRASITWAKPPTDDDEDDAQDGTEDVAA

[3] = biological target: T3, wild-type ϕC31 integrase fused to T18 (Int-T18 fusion, pEY111) (Streptomyces phage ϕC31) (UniProt Q9T221); experiment: as above
T3 sequence: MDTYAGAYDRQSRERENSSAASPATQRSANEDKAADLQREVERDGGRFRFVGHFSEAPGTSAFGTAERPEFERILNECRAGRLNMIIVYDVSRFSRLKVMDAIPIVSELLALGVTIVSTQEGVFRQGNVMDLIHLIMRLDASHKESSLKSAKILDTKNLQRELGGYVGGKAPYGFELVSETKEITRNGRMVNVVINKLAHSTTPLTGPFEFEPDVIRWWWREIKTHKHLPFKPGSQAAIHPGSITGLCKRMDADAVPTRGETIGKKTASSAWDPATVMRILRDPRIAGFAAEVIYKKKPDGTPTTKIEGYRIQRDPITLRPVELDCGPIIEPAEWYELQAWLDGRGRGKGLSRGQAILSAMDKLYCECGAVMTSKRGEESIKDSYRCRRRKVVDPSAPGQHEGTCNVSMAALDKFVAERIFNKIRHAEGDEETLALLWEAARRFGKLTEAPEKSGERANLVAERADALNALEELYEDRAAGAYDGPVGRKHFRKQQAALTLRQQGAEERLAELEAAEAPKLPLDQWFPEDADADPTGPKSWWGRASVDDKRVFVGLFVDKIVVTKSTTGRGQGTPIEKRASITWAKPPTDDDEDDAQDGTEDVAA

[4] = biological target: T4, ϕC31 IntI582V fused to T18 (Streptomyces phage ϕC31) (UniProt Q9T221); experiment: two-hybrid; bacterial two-hybrid in E. coli BTH101; signal quantified by β-galactosidase assay (ONPG, ΔOD420/min/ml) of cultures grown 16 h at 30°C with IPTG
T4 sequence: T3 sequence with I582V

[5] = biological target: T5, ϕC31 IntT564A fused to T18 (Streptomyces phage ϕC31) (UniProt Q9T221); experiment: as above
T5 sequence: T3 sequence with T564A

For “T25-ϕC31 gp3 (wild type) fusion protein (Streptomyces phage ϕC31)”, the binding [1] was “no binding”, the binding [2] was “binds” and the binding [3] was “binds”. The binding [4] was “binds” and the binding [5] was “binds”.

Residue numbers refer to the chain shown, from its start. Results are given in words; binding and its absence hold for the method and conditions named. For some assays here: Binding calls can cover weak binding; strength is not graded here. Tags and fused reporters may be left off the sequences shown.
